PubChem BioAssay AID1508597, Cure First, 2020

Purpose: 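Knock-downs altering ovarian cancer cell survival with or without PARP inhibitor rucaparib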 (primary screen)
Cells: human ovarian carcinoma lines grown from tumours: OCI-P5x (papillary serous) and OCI-C5x (clear cell)
Reagent: siRNA pool against human genes, 1.25 pmol siRNA per well
Duration: 72 h or 96 h, depending on the cell culture
Challenge: rucaparib 20 µM (about IC30) or vehicle, present until read-out
Rucaparib or vehicle: Rucaparib
Cell line: OCI-P5x (serous)
Measurement: 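ATP luminescence measured at 72 or 96 h according to the culture, then normalised and expressed as percent viability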
Scale: viability, normalised: higher = more viable cells remaining
Hit rule: 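a well counts as a hit if its normalised viability is under 80 percent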
Meaning of the calls: active = viability under 80%; inactive = viability 80% or more
This is an unselected part of the about 2,100 reagents, in one setting of the screen. 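Calls flag viability under 80% in either arm, not effects specific to rucaparib; the reference for percent is not stated.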 Unmarked entries are inactive. A reagent listed more than once was tested more than once; the source does not tell the runs apart. The record does not give: the 100% reference.

| gene | technical replicate | viability, normalised (%) |
| --- | --- | --- |
| APEX1 | 1 | 96.8 |
| APEX1 | 1 | 95.4 |
| APEX1 | 2 | 86.5 |
| APEX1 | 2 | 92.4 |
| APEX1 | 3 | 83.5 |
| APEX1 | 3 | 106 |
| IRAK2 | 1 | 120 |
| IRAK2 | 2 | 86.8 |
| IRAK2 | 3 | 77 (active) |
| SUPV3L1 | 1 | 47.4 (active) |
| SUPV3L1 | 1 | 40.9 (active) |
| SUPV3L1 | 2 | 61 (active) |
| SUPV3L1 | 2 | 38.9 (active) |
| SUPV3L1 | 3 | 54.7 (active) |
| SUPV3L1 | 3 | 49.3 (active) |
| S100A6 | 1 | 40.4 (active) |
| S100A6 | 2 | 46 (active) |
| S100A6 | 3 | 49.6 (active) |
| TDG | 1 | 89.5 |
| TDG | 2 | 98.7 |
| TDG | 3 | 81.1 |
| MRPL58 | 1 | 68.7 (active) |
| MRPL58 | 1 | 59.3 (active) |
| MRPL58 | 2 | 59.7 (active) |
| MRPL58 | 2 | 54.5 (active) |
| MRPL58 | 3 | 64.8 (active) |
| MRPL58 | 3 | 96 |
| ROR1 | 1 | 76 (active) |
| ROR1 | 2 | 90.9 |
| ROR1 | 3 | 79.9 (active) |
| XRCC4 | 1 | 87.2 |
| XRCC4 | 2 | 112 |
| XRCC4 | 3 | 89.3 |
| GUK1 | 1 | 74.8 (active) |
| GUK1 | 2 | 59.9 (active) |
| GUK1 | 3 | 71.9 (active) |
| CLDN4 | 1 | 86.1 |
| CLDN4 | 2 | 95.6 |
| CLDN4 | 3 | 81.2 |
| HSD17B4 | 1 | 61.4 (active) |
| HSD17B4 | 2 | 65 (active) |
| HSD17B4 | 3 | 83.6 |
| DCK | 1 | 101 |
| DCK | 1 | 90.1 |
| DCK | 2 | 91.6 |
| DCK | 2 | 111 |
| DCK | 3 | 64.8 (active) |
| DCK | 3 | 122 |
| ARID5A | 1 | 59.2 (active) |
| ARID5A | 2 | 55.8 (active) |
| ARID5A | 3 | 60.2 (active) |
| PSKH2 | 1 | 91.4 |
| PSKH2 | 2 | 82.3 |
| PSKH2 | 3 | 46.7 (active) |
| USP28 | 1 | 62.4 (active) |
| USP28 | 2 | 94.4 |
| USP28 | 3 | 78.4 (active) |
| SSBP1 | 1 | 124 |
| SSBP1 | 2 | 76.7 (active) |
| SSBP1 | 3 | 75.9 (active) |
| WNK1 | 1 | 85.6 |
| WNK1 | 1 | 62.3 (active) |
| WNK1 | 2 | 92.9 |
| WNK1 | 2 | 77.8 (active) |
| WNK1 | 3 | 88 |
| TET1 | 1 | 62.3 (active) |
| TET1 | 2 | 68 (active) |
| TET1 | 3 | 71.8 (active) |
| LRRK2 | 1 | 125 |
| LRRK2 | 2 | 105 |
| LRRK2 | 3 | 90.6 |
| NHERF1 | 1 | 38 (active) |
| NHERF1 | 2 | 46 (active) |
| NHERF1 | 3 | 47 (active) |

Quoted from the entries so far (4 entries):
| gene | technical replicate | viability, normalised (%) |
| --- | --- | --- |
| MRPL58 | 2 | 59.7 (active) |
| MRPL58 | 2 | 54.5 (active) |
| MRPL58 | 3 | 64.8 (active) |
| MRPL58 | 3 | 96 |
